Measured values published in the supplement of paper PMC8728848.
Some of the results follow.

What was measured:
Assay in all cases: glycan array binding signal (z-score within array); higher = stronger binding
Conditions in all cases: glycan notation: IUPAC condensed, linker removed
[1] = target: Man(a1-3)[Man(a1-6)]Man(a1-6)[Man(a1-3)]Man
In short: (§1)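 Glycan array binding is given as a within-array Z-score, which can be read as non-binding when negative. The arrays, 3228 of them, came from the Consortium for Functional Glycomics database and were retained only where the protein sequence was available. Z-scores were averaged across arrays of the same protein sequence at different concentrations or buffers and across linkers.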

[2] = target: Man(a1-3)[Man(a1-6)]Man(a1-6)[Man(a1-3)]Man(b1-4)GlcNAc(b1-4)GlcNAc
In short: as §1

[3] = target: Man(a1-3)[Man(a1-6)]Man(b1-4)GlcNAc(b1-4)GlcNAc
In short: as §1

[4] = target: Man(a1-3)[Man(a1-6)]Man(b1-4)GlcNAc(b1-4)[Fuc(a1-6)]GlcNAc
In short: as §1

Man(a1-6)Man = target: Man(a1-6)Man
In short: as §1

Man(b1-4)GlcNAc = target: Man(b1-4)GlcNAc
In short: as §1

MurNAc(b1-4)GlcNAc = target: MurNAc(b1-4)GlcNAc
In short: as §1

Neu5Ac(a2-3)Gal = target: Neu5Ac(a2-3)Gal
In short: as §1

[5] = target: Neu5Ac(a2-3)Gal(b1-3)GalNAc
In short: as §1

[6] = target: Neu5Ac(a2-3)Gal(b1-3)GalNAc(b1-3)Gal(a1-4)Gal(b1-4)Glc
In short: as §1

[7] = target: Neu5Ac(a2-3)Gal(b1-3)GalNAc(b1-4)[Neu5Ac(a2-3)]Gal(b1-4)Glc
In short: as §1

[8] = target: Neu5Ac(a2-3)Gal(b1-3)GalNAc(b1-4)[Neu5Ac(a2-8)Neu5Ac(a2-3)]Gal(b1-4)Glc
In short: as §1

[9] = target: Neu5Ac(a2-3)Gal(b1-3)GalNAc6S
In short: as §1

[10] = target: Neu5Ac(a2-3)Gal(b1-3)GlcNAc
In short: as §1

[11] = target: Neu5Ac(a2-3)Gal(b1-3)GlcNAc(b1-2)Man
In short: as §1

[12] = target: Neu5Ac(a2-3)Gal(b1-3)GlcNAc(b1-2)Man(a1-3)[GlcNAc(b1-4)][Neu5Ac(a2-3)Gal(b1-3)GlcNAc(b1-2)Man(a1-6)]Man(b1-4)GlcNAc(b1-4)GlcNAc
In short: as §1

[13] = target: Neu5Ac(a2-3)Gal(b1-3)GlcNAc(b1-2)Man(a1-3)[Neu5Ac(a2-3)Gal(b1-3)GlcNAc(b1-2)Man(a1-6)]Man(b1-4)GlcNAc(b1-4)GlcNAc
In short: as §1

[14] = target: Neu5Ac(a2-3)Gal(b1-3)GlcNAc(b1-3)Gal(b1-3)GlcNAc
In short: as §1

[15] = target: Neu5Ac(a2-3)Gal(b1-3)GlcNAc(b1-3)Gal(b1-4)GlcNAc
In short: as §1

[16] = target: Neu5Ac(a2-3)Gal(b1-3)GlcNAc(b1-3)GalNAc
In short: as §1

[17] = target: Neu5Ac(a2-3)Gal(b1-3)GlcNAc(b1-4)Gal(b1-4)Glc
In short: as §1

[18] = target: Neu5Ac(a2-3)Gal(b1-3)GlcNAc(b1-6)GalNAc
In short: as §1

[19] = target: Neu5Ac(a2-3)Gal(b1-3)GlcNAc6S
In short: as §1

[20] = target: Neu5Ac(a2-3)Gal(b1-3)[Fuc(a1-4)]GlcNAc
In short: as §1

[21] = target: Neu5Ac(a2-3)Gal(b1-3)[Fuc(a1-4)]GlcNAc(b1-3)Gal(b1-3)[Fuc(a1-4)]GlcNAc
In short: as §1

[22] = target: Neu5Ac(a2-3)Gal(b1-3)[Fuc(a1-4)]GlcNAc(b1-3)Gal(b1-4)[Fuc(a1-3)]GlcNAc
In short: as §1

[23] = target: Neu5Ac(a2-3)Gal(b1-3)[GlcNAc(b1-6)]GalNAc
In short: as §1

[24] = target: Neu5Ac(a2-3)Gal(b1-3)[Neu5Ac(a2-6)]GalNAc
In short: as §1

[25] = target: Neu5Ac(a2-3)Gal(b1-3)[Neu5Ac(a2-6)]GlcNAc(b1-3)[Fuc(a1-3)[Gal(b1-4)]GlcNAc(b1-6)]Gal(b1-4)Glc
In short: as §1

[26] = target: Neu5Ac(a2-3)Gal(b1-3)]Neu5Ac(a2-3)Gal(b1-4)]GlcNAc
In short: as §1

Neu5Ac(a2-3)Gal(b1-4)Glc = target: Neu5Ac(a2-3)Gal(b1-4)Glc
In short: as §1

[27] = target: Neu5Ac(a2-3)Gal(b1-4)GlcNAc
In short: as §1

[28] = target: Neu5Ac(a2-3)Gal(b1-4)GlcNAc(b1-2)Man
In short: as §1

[29] = target: Neu5Ac(a2-3)Gal(b1-4)GlcNAc(b1-2)Man(a1-3)[GlcNAc(b1-4)][Neu5Ac(a2-3)Gal(b1-4)GlcNAc(b1-2)Man(a1-6)]Man(b1-4)GlcNAc(b1-4)GlcNAc
In short: as §1

[30] = target: Neu5Ac(a2-3)Gal(b1-4)GlcNAc(b1-2)Man(a1-3)[Neu5Ac(a2-3)Gal(b1-4)GlcNAc(b1-2)Man(a1-6)]Man(b1-4)GlcNAc(b1-4)GlcNAc
In short: as §1

[31] = target: Neu5Ac(a2-3)Gal(b1-4)GlcNAc(b1-2)Man(a1-3)[Neu5Ac(a2-3)Gal(b1-4)GlcNAc(b1-2)Man(a1-6)]Man(b1-4)GlcNAc(b1-4)[Fuc(a1-6)]GlcNAc
In short: as §1

[32] = target: Neu5Ac(a2-3)Gal(b1-4)GlcNAc(b1-2)Man(a1-3)[Neu5Ac(a2-6)Gal(b1-4)GlcNAc(b1-2)Man(a1-6)]Man(b1-4)GlcNAc(b1-4)GlcNAc
In short: as §1

[33] = target: Neu5Ac(a2-3)Gal(b1-4)GlcNAc(b1-2)[Neu5Ac(a2-3)Gal(b1-4)GlcNAc(b1-4)]Man(a1-3)[GlcNAc(b1-4)][Neu5Ac(a2-3)Gal(b1-4)GlcNAc(b1-2)[Neu5Ac(a2-3)Gal(b1-4)GlcNAc(b1-6)]Man(a1-6)]Man(b1-4)GlcNAc(b1-4)GlcNAc
In short: as §1

B1: SspB C123 (Streptococcus gordonii), Q54186 (protein)
chain: MAHFHYSSLLAQPQINKEIKNEDGVDIDRTLVAKQSIGKFELKTEALTAGRPKTTSFVLVDPLPTGYKFDLDATKAASTGFDTTYDEASHTVTFKATDETLATYNADLTKPVETLHPTVVGRVLNDGATYTNNFTLTVNDAYGIKSNVVRVTTPGKPNDPDNPNNNYIKPTKVNKNKEGLNIDGKEVLAGSTNYYELTWDLDQYKGDKSSKEAIQNGFYYVDDYPEEALDVRPDLVKVADEKGNQVSGVSVQQYDSLEAAPKKVQDLLKKANITVKGAFQLFSADNPEEFYKQYVSTGTSLVITDPMTVKSEFGKTGGKYENKAYQIDFGNGYATEVVVNNVPKITPKKDVTVSLDPTSENLDGQTVQLYQTFNYRLIGGFIPQNHSEELEDYSFVDDYDQAGDQYTGNYKTFSSLNLTMKDGSVIKAGTDLTSQTTAETDATNGIVTVRFKEDFLQKISLDSPFQAETYLQMRRIAIGTFENTYVNTVNKVAYASAAALEHHHHHH
Q: Which “glycan array binding signal (z-score)” value [1] does the source give for B1 here?
A: Its value is -0.537.

Q: And the “glycan array binding signal (z-score)” value [2]?
A: The value was -0.78.

Q: And the “glycan array binding signal (z-score)” value [3]?
A: Its value is 0.503.

Q: What about the “glycan array binding signal (z-score)” value [4] of the same binder?
A: The value was 1.39.

Q: What about the “glycan array binding signal (z-score)” value (Man(a1-6)Man) of the same binder?
A: Its value is 3.13.

Q: What about the “glycan array binding signal (z-score)” value (Man(b1-4)GlcNAc) of the same binder?
A: Its value is -1.2.

Q: What about the “glycan array binding signal (z-score)” value (MurNAc(b1-4)GlcNAc) of the same binder?
A: Its value is -1.41.

Q: And the “glycan array binding signal (z-score)” value (Neu5Ac(a2-3)Gal)?
A: The value was -0.965.

Q: And the “glycan array binding signal (z-score)” value [5]?
A: Its value is -0.687.

Q: And the “glycan array binding signal (z-score)” value [6]?
A: The value was -0.945.

Q: And the “glycan array binding signal (z-score)” value [7]?
A: The value was 0.274.

Q: What about the “glycan array binding signal (z-score)” value [8] of the same binder?
A: The value was -0.494.

Q: And the “glycan array binding signal (z-score)” value [9]?
A: The value was -1.23.

Q: And the “glycan array binding signal (z-score)” value [10]?
A: Its value is -0.096.

Q: What about the “glycan array binding signal (z-score)” value [11] of the same binder?
A: The value was 0.771.

Q: What about the “glycan array binding signal (z-score)” value [12] of the same binder?
A: Its value is 0.255.

Q: What about the “glycan array binding signal (z-score)” value [13] of the same binder?
A: The value was 0.359.

Q: What about the “glycan array binding signal (z-score)” value [14] of the same binder?
A: Its value is -0.881.

Q: And the “glycan array binding signal (z-score)” value [15]?
A: The value was -0.583.

Q: And the “glycan array binding signal (z-score)” value [16]?
A: Its value is 1.75.

Q: What about the “glycan array binding signal (z-score)” value [17] of the same binder?
A: The value was -0.519.

Q: And the “glycan array binding signal (z-score)” value [18]?
A: The value was -0.458.

Q: What about the “glycan array binding signal (z-score)” value [19] of the same binder?
A: Its value is -0.631.

Q: And the “glycan array binding signal (z-score)” value [20]?
A: The value was 0.428.

Q: And the “glycan array binding signal (z-score)” value [21]?
A: The value was 0.153.

Q: What about the “glycan array binding signal (z-score)” value [22] of the same binder?
A: The value was 0.486.

Q: And the “glycan array binding signal (z-score)” value [23]?
A: Its value is 1.46.

Q: What about the “glycan array binding signal (z-score)” value [24] of the same binder?
A: Its value is -0.108.

Q: And the “glycan array binding signal (z-score)” value [25]?
A: Its value is -0.716.

Q: What about the “glycan array binding signal (z-score)” value [26] of the same binder?
A: Its value is -0.801.

Q: And the “glycan array binding signal (z-score)” value (Neu5Ac(a2-3)Gal(b1-4)Glc)?
A: The value was 1.36.

Q: And the “glycan array binding signal (z-score)” value [27]?
A: The value was 0.329.

Q: And the “glycan array binding signal (z-score)” value [28]?
A: The value was 1.

Q: What about the “glycan array binding signal (z-score)” value [29] of the same binder?
A: The value was 0.215.

Q: And the “glycan array binding signal (z-score)” value [30]?
A: Its value is 0.962.

Q: What about the “glycan array binding signal (z-score)” value [31] of the same binder?
A: Its value is 1.81.

Q: And the “glycan array binding signal (z-score)” value [32]?
A: The value was -0.798.

Q: What about the “glycan array binding signal (z-score)” value [33] of the same binder?
A: Its value is -0.756.
